From the supplement of paper PMC5949888
± gives the standard deviation of the averaged measurements. Most values lie at the floor of the assay. Slopes are relative: functional sequences can read slightly below zero.

Each substance was assayed on Saccharomyces cerevisiae PS128 hsf1 delta, HSF1(1-493) fusion (assay: growth estimate (transactivation domain function in HSF1 fusion, heat-shock survival) (a.u. (slope of normalised read count over time)); higher = stronger growth at 37°C, i.e. more transactivation activity). Conditions: library: random library.
Method: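 Random 60-nt DNA library encoding peptides of up to 20 aa, fused to the C-terminus of yeast HSF1 residues 1-493 (C-terminal TAD deleted) and expressed from the native HSF1 promoter on a CEN plasmid in hsf1-deleted S. cerevisiae PS128. Cells were selected at 37°C on -trp 5-FOA plates for 0, 2, 4, 6 and 8 days and amplicons were sequenced. Growth estimate is the slope of a robust linear fit of total-sum-normalised read counts (normalised to the first time point) over time, using at least 2 replicates. Sequences are classed functional (TAD activity) above a threshold of -0.13, set from stop-codon control sequences.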
With AVGAKRGRTSFCAHATEVS the growth estimate was < -0.25. In the case of FRWGHLTGS, the growth estimate is reported as < -0.25. With LWR the growth estimate was < -0.25. QTWPFIDSYHET gave a growth estimate of 10.3. LLSSQV was tested, and the growth estimate was < -0.25. With STDLGRDCSLVPVT the growth estimate was < -0.25. In the case of TYPANACGFILLNINEPVLR, the growth estimate is reported as < -0.25. YCGIRSYSPMIARTVLPHVG was tested, and the growth estimate was < -0.25. In the case of RDFAHCRRKDM, the growth estimate is reported as < -0.25. In the case of VNHETYE, the growth estimate is reported as < -0.25. RTCFNAREANNGGSNAR was tested, and the growth estimate was < -0.25. In the case of ECGDQCIHFCISKGRLEVFG, the growth estimate is reported as < -0.25. For IGMRPV, the growth estimate was < -0.25. With KMKSRADGF the growth estimate was < -0.25. SGVARELARA was tested, and the growth estimate was < -0.25. KRALCMFKPKASNGPALSED was tested, and the growth estimate was < -0.25. TVGSFPGDAADSDARAHR was tested, and the growth estimate was < -0.25. With NVHS the growth estimate was < -0.25. In the case of DRVTGVLL, the growth estimate is reported as < -0.25. In the case of SPVSPSPLSCHSS, the growth estimate is reported as < -0.25. SVQ was tested, and the growth estimate was < -0.25. In the case of QTVRAMWRLDCVSGDIMTAF, the growth estimate is reported as < -0.25. With CLEWVCREGPHRNLLARRVL the growth estimate was < -0.25. VLLVERLRPIGW was tested, and the growth estimate was < -0.25. With SARLCTDSTTNLSFPRRIDG the growth estimate was < -0.25. ISTIRLADLPLDGM gave a growth estimate of -0.177. For DRGTYAGGSGRSK, the growth estimate was < -0.25. In the case of TTLGPYADVLSSLNSYAVLK, the growth estimate is reported as < -0.25. RDFDRG was tested, and the growth estimate was < -0.25. With KCPTTERKQGGSVASI the growth estimate was < -0.25. In the case of PDPLPEAVYRDGVIPRVRDA, the growth estimate is reported as < -0.25. HLEALAGGYILLSVVGA was tested, and the growth estimate was < -0.25. Substance AGVRIAGCSHESDPWVPWPD has a growth estimate of -0.135. In the case of KAAMTSRTVRPDGNVQVPLL, the growth estimate is reported as < -0.25. HLNIWRLTVLGQSSRGPSSG was tested, and the growth estimate was < -0.25. With EDLGFRLV the growth estimate was < -0.25. RGDPHVTRL was tested, and the growth estimate was < -0.25. With GVGAGFGY the growth estimate was < -0.25. LVFRFRYFGKWVFVE gave a growth estimate of -0.246. ALISEQGTHPYASYRYN was tested, and the growth estimate was < -0.25. In the case of TDFQTNSGIALALRQLTARG, the growth estimate is reported as < -0.25. For EGERAPACI, the growth estimate was < -0.25. For NSFSGRCNGLLTAT, the growth estimate was < -0.25. In the case of EYYVCLQGSMDLSYATRSKT, the growth estimate is reported as < -0.25. With FAGLISISVTQ the growth estimate was < -0.25. SCGTHEP was tested, and the growth estimate was < -0.25. With HTG the growth estimate was < -0.25. In the case of CNIRLMEEYKKSIVRGLKAS, the growth estimate is reported as < -0.25. For SPWTPT, the growth estimate was < -0.25. For FHL, the growth estimate was < -0.25. With IPLRGP the growth estimate was < -0.25. GRSTGVRCHHGTSCSPPSTP was tested, and the growth estimate was < -0.25. For WLGRFCARNAFLS, the growth estimate was < -0.25. PPKTWLEGACDCGKLKVLRV was tested, and the growth estimate was < -0.25. With LRYSMTA the growth estimate was < -0.25. For NFHHSLPQTTGCPVSGIYVG, the growth estimate was -0.246. With SVLPFLNTGCDLSPA the growth estimate was < -0.25. In the case of PQIQDRGKAI, the growth estimate is reported as < -0.25. LVPLDILIRTRRKSGFTSSP was tested, and the growth estimate was < -0.25. LVCRIFRVRQT was tested, and the growth estimate was < -0.25. With NLAWT the growth estimate was < -0.25. In the case of CGRSR, the growth estimate is reported as < -0.25. With SDSVV the growth estimate was < -0.25. GPSSARSSIPR was tested, and the growth estimate was < -0.25. In the case of RCEGTLE, the growth estimate is reported as < -0.25. For TCDEG, the growth estimate was < -0.25. With NMLEGRSVFSTKSKRPWYYC the growth estimate was < -0.25. With VLGPAQRFMVLLDRFEHAPS the growth estimate was < -0.25. With RILASPVASV the growth estimate was < -0.25. With VGRGSAQRARPGLITKKLTA the growth estimate was < -0.25. LAYKARSVGILSCNRIIRMV was tested, and the growth estimate was < -0.25. For DSTS, the growth estimate was < -0.25. For LFWLVNTWLMGGVVQHVEEE, the growth estimate was < -0.25. TNPLRLHDFDPMIDCERLRG was tested, and the growth estimate was < -0.25. In the case of GGRPGGRP, the growth estimate is reported as < -0.25. With ECDNILKIW the growth estimate was < -0.25. In the case of MSPLPHVKARLCCHERTASP, the growth estimate is reported as < -0.25. AGNGKRSVKADRLRFLVRSH was tested, and the growth estimate was < -0.25. With QCKAE the growth estimate was < -0.25. GPRCMRSASLPYGVWTES was tested, and the growth estimate was < -0.25. LHSIAGSSG was tested, and the growth estimate was < -0.25. For FVESREH, the growth estimate was < -0.25. With RHLGRECAVRSQRGRRFPRV the growth estimate was < -0.25. With REPARPSRPPHPIDWEIPSC the growth estimate was < -0.25. VYHSASDARSVRGTLQFMIK was tested, and the growth estimate was < -0.25. Work on TFVGLGCHTVT yielded a growth estimate of -0.192. VTH showed a growth estimate of -0.231. GPQVTSPWFQPRWLDFTKGF was tested, and the growth estimate was -0.246. For AKTGRILWSTSEPWWTQEYG, the growth estimate was < -0.25. For KRKYRPGIRYHERTGCGLRR, the growth estimate was -0.246. In the case of HLLTTRLLSCVLRRNVDA, the growth estimate is reported as < -0.25. In the case of VWVIRWQIVDRVEHSL, the growth estimate is reported as < -0.25. For KYASAWGTGYSVRSP, the growth estimate was < -0.25. For NLNIRKGTVG, the growth estimate was < -0.25. SLNEGSLTEAVHRRFPQQVS was tested, and the growth estimate was < -0.25. TRS was tested, and the growth estimate was -0.248 ± 0.0039. ILAMDAYEASVCTVRPLQSF showed a growth estimate of -0.219. With LTRT the growth estimate was < -0.25. In the case of SQRP, the growth estimate is reported as < -0.25. In the case of RHIQSRVISFKLRAFAV, the growth estimate is reported as < -0.25. Substance PVIP has a growth estimate of -0.21. In the case of GFV, the growth estimate is reported as < -0.25. For DHQQHTQITDGICSCDKGRA, the growth estimate was < -0.25. For TGVSRYGIHSAIRCAVGPAS, the growth estimate was < -0.25. For IDTRRVRGQRKDGSRQTGQT, the growth estimate was < -0.25. With VGSVYQLGRPS the growth estimate was < -0.25. In the case of SGLSISSWMWAKKEVSTEAP, the growth estimate is reported as < -0.25. For LAPEHGFESVKERGRPMHFV, the growth estimate was -0.228. CSFFLTGAVLHGYAGPIVSA gave a growth estimate of -0.243. For RVFWACALFLPRKIFRFVLR, the growth estimate was < -0.25. In the case of TQHTFGIPASKRIRGNQGRL, the growth estimate is reported as < -0.25. SDS was tested, and the growth estimate was -0.242. For DSRNPIVK, the growth estimate was < -0.25. For TEVEGEVQISGQKPQESTTL, the growth estimate was < -0.25. LPHLRSSSEPFEQARNCIRR was tested, and the growth estimate was < -0.25. SCLCRAGPLGMESLTCSASL was tested, and the growth estimate was < -0.25. With HMQELYLVGKLASTSDSLDL the growth estimate was < -0.25. With TMTR the growth estimate was < -0.25. In the case of KPTL, the growth estimate is reported as < -0.25. In the case of KQRDLAVTLVTMCVRPGLSG, the growth estimate is reported as -0.245. For DAGLRHRRRTFPSFHLLHSA, the growth estimate was < -0.25. For SLQQIQSETWWSTFEIRSVF, the growth estimate was < -0.25. For FENHTERPVYTVTKAFLLRP, the growth estimate was < -0.25. For QSRLDSGTRNIQWHLVASRS, the growth estimate was < -0.25. In the case of KHDRFRSRGASLPRKNSCVG, the growth estimate is reported as < -0.25. With GPNRHLKPRMVFHNSGIGEI the growth estimate was < -0.25. For VMFR, the growth estimate was < -0.25. With HYMPKFDRLRLL the growth estimate was < -0.25. RTPGVYDFSSQDPLPSVARR was tested, and the growth estimate was < -0.25. In the case of PKTMRSRPTEVAGVALGTGF, the growth estimate is reported as < -0.25. With AVRFHGMPLDTFYRVGSGPA the growth estimate was -0.243. In the case of ELWGVQFPGFWNVGHARYLS, the growth estimate is reported as < -0.25. SVYWSVQIIRQQANYYGHWG was tested, and the growth estimate was < -0.25. For PGVPWRWQIVSS, the growth estimate was < -0.25. SRSLD was tested, and the growth estimate was < -0.25. With PLCYPSREESTNCGLALHRL the growth estimate was < -0.25. For PGLTKDSQSEVVPPTGGPGL, the growth estimate was < -0.25. For VPTASLEVPRRAGRN, the growth estimate was < -0.25. With VLPSTVQS the growth estimate was < -0.25. With FQFRGPALASRAGLMISTLC the growth estimate was < -0.25. In the case of KTSIRLLFRRRVDRLSGLLG, the growth estimate is reported as < -0.25. For CIHTWAPESMSESGSNLPGT, the growth estimate was < -0.25. With TFPHVHVHTTRSSPTIHSGP the growth estimate was < -0.25. In the case of QHLFPRV, the growth estimate is reported as < -0.25. In the case of WCAVHCGERSW, the growth estimate is reported as < -0.25. For AGLEFPTFPRSLCAVWCPI, the growth estimate was < -0.25. In the case of FAIGAQLSDLGVRTGRHLSS, the growth estimate is reported as < -0.25. In the case of RIVVLGYVWWLAIVER, the growth estimate is reported as < -0.25. RTCRTCR was tested, and the growth estimate was < -0.25. With SDVNIVE the growth estimate was < -0.25. SLSGLSFSSPSQHSLFGAEL was tested, and the growth estimate was < -0.25. For TQYPCGKITSCLEKSVGSPA, the growth estimate was < -0.25. VKRICEHLGNSVLTYRVRTA was tested, and the growth estimate was < -0.25.
